Results: the supplement of paper PMC10849652
This is one part of the list.

By UniProt entry, the sequences of proteins in these tests, tags left out. Where a name states a change or a piece, a line headed by the entry shows the natural chain unless it says otherwise.
UniProt Q5JPI9: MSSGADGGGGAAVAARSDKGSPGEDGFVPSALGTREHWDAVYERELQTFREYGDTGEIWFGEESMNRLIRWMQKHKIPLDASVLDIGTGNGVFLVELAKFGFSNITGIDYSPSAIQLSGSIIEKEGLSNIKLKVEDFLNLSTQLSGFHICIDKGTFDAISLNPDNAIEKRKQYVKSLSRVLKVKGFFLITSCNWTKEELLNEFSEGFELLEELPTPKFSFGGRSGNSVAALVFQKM
UniProt P57772: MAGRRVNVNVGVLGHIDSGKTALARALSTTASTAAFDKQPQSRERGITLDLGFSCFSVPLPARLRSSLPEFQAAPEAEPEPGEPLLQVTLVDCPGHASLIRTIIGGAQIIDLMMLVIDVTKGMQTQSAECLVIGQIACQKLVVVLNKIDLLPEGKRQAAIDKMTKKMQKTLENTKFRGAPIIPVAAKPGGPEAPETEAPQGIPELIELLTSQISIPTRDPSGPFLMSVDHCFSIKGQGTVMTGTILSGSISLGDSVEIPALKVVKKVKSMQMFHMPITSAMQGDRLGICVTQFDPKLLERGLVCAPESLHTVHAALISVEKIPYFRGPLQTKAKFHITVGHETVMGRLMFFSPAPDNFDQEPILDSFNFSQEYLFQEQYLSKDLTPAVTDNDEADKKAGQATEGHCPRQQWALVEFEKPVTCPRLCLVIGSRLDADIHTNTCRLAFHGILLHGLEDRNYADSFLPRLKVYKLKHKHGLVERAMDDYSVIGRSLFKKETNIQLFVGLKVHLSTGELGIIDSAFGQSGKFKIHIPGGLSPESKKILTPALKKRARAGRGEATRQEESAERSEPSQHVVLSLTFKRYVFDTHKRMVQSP
UniProt P63241: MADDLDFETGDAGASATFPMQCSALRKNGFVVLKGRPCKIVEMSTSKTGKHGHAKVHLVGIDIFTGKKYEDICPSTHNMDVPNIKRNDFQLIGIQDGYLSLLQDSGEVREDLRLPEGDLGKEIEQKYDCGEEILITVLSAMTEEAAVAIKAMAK
UniProt Q8N766: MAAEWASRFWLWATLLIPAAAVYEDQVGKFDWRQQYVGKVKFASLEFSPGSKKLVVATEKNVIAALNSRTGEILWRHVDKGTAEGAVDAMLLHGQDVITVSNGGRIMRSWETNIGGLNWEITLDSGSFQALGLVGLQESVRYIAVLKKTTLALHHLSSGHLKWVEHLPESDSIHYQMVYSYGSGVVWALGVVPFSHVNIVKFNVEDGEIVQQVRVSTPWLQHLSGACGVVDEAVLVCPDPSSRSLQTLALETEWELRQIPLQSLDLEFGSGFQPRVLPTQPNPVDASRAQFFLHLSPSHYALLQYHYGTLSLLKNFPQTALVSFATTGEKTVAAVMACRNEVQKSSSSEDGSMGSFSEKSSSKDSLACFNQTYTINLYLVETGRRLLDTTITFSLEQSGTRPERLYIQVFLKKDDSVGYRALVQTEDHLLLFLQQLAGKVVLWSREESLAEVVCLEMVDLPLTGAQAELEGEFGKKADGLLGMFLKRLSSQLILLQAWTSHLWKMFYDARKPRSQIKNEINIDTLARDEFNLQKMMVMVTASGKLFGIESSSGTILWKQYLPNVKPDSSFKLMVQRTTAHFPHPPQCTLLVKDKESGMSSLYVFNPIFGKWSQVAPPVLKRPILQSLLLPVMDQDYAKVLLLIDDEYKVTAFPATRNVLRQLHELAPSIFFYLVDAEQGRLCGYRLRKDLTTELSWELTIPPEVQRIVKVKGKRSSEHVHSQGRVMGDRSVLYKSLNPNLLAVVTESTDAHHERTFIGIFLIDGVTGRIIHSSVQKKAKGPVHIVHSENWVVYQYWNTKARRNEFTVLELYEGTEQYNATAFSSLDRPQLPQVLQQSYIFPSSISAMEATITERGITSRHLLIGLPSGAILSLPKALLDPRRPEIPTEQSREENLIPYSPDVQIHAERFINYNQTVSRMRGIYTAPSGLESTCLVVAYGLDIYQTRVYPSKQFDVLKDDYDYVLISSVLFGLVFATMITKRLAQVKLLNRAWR
UniProt P09104, whole entry, looked up: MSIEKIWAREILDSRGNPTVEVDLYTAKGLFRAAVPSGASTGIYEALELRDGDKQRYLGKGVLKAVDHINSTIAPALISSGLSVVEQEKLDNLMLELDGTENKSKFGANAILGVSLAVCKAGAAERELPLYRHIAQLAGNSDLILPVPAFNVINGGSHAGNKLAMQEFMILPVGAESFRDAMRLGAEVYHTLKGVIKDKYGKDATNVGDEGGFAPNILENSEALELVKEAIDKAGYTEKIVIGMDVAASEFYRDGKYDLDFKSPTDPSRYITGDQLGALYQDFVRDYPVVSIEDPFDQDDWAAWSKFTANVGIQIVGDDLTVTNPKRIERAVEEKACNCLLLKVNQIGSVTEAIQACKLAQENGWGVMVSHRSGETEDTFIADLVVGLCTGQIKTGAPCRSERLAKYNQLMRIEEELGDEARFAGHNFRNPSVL
UniProt Q96EB1: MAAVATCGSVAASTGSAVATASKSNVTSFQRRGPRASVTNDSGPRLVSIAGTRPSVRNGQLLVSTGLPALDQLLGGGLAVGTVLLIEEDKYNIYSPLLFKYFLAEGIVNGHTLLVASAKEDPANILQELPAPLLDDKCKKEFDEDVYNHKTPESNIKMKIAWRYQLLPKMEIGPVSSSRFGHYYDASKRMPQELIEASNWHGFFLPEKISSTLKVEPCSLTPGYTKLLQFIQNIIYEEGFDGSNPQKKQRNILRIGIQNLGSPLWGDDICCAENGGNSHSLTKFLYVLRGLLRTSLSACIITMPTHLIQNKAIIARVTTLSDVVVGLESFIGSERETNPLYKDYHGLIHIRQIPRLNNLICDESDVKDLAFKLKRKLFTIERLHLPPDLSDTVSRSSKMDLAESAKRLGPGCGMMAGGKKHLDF
UniProt O95163: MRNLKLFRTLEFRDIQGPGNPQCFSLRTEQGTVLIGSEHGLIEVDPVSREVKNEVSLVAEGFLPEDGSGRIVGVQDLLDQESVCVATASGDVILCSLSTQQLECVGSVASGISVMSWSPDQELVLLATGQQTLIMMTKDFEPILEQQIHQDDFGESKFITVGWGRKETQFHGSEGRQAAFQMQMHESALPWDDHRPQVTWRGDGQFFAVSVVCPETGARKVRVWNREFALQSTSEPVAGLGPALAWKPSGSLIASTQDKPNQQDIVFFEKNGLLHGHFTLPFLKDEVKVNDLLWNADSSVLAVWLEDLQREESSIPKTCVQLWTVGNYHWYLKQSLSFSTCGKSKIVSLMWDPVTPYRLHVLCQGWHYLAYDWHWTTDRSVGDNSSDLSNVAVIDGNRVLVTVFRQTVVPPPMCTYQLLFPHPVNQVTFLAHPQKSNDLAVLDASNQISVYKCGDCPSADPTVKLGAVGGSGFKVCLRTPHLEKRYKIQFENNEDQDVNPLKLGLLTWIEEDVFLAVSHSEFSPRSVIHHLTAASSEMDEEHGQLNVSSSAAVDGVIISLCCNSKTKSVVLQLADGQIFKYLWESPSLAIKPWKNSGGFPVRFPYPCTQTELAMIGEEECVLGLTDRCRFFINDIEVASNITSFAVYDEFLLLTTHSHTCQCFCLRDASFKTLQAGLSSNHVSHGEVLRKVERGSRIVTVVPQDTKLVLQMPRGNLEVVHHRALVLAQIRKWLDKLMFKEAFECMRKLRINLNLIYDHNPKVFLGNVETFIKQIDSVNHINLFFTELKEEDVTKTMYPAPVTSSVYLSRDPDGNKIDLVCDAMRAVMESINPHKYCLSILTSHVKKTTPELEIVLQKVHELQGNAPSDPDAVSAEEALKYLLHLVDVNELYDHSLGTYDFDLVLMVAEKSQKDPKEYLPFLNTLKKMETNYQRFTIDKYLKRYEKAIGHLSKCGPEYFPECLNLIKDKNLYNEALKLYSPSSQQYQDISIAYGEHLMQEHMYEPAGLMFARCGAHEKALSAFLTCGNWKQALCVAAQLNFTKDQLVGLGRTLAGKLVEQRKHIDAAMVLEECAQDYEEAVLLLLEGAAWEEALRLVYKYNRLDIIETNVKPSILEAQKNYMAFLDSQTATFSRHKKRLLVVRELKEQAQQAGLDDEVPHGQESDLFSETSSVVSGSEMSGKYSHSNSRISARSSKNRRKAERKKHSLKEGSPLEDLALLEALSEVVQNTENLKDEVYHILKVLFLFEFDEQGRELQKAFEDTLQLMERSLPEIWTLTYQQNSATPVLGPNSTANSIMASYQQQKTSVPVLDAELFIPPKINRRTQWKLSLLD
UniProt Q9H5J4: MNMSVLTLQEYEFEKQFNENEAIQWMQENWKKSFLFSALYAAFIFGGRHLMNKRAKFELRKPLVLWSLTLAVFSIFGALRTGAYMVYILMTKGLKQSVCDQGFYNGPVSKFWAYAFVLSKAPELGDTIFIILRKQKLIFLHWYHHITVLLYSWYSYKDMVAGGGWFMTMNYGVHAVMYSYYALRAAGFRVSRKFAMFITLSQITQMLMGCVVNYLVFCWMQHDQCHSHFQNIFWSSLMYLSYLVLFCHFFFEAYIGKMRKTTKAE
UniProt Q15717, whole entry, looked up: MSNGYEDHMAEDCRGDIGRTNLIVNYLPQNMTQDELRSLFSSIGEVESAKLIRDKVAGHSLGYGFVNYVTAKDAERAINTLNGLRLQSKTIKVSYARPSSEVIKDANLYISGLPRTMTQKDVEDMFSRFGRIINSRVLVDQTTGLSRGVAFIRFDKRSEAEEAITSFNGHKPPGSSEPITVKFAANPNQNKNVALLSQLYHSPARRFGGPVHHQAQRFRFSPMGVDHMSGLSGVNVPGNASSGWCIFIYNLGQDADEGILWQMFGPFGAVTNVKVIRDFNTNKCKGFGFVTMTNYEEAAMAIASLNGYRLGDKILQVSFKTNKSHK
UniProt Q9BV81: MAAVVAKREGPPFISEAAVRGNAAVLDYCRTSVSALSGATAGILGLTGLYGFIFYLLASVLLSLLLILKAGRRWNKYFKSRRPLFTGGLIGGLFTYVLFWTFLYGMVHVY
UniProt Q05639, whole entry, looked up: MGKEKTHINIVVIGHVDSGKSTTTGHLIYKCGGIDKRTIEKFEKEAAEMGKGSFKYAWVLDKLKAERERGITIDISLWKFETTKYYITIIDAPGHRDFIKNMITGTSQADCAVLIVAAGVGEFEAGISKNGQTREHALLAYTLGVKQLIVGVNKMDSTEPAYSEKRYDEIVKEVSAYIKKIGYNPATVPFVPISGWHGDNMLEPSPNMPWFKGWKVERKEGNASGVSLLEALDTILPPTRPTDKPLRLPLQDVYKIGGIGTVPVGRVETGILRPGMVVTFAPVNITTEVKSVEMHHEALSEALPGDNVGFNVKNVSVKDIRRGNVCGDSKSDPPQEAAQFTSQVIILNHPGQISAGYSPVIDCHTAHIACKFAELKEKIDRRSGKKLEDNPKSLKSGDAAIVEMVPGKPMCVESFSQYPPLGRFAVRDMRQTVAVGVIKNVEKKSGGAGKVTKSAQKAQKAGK
UniProt Q96KQ7: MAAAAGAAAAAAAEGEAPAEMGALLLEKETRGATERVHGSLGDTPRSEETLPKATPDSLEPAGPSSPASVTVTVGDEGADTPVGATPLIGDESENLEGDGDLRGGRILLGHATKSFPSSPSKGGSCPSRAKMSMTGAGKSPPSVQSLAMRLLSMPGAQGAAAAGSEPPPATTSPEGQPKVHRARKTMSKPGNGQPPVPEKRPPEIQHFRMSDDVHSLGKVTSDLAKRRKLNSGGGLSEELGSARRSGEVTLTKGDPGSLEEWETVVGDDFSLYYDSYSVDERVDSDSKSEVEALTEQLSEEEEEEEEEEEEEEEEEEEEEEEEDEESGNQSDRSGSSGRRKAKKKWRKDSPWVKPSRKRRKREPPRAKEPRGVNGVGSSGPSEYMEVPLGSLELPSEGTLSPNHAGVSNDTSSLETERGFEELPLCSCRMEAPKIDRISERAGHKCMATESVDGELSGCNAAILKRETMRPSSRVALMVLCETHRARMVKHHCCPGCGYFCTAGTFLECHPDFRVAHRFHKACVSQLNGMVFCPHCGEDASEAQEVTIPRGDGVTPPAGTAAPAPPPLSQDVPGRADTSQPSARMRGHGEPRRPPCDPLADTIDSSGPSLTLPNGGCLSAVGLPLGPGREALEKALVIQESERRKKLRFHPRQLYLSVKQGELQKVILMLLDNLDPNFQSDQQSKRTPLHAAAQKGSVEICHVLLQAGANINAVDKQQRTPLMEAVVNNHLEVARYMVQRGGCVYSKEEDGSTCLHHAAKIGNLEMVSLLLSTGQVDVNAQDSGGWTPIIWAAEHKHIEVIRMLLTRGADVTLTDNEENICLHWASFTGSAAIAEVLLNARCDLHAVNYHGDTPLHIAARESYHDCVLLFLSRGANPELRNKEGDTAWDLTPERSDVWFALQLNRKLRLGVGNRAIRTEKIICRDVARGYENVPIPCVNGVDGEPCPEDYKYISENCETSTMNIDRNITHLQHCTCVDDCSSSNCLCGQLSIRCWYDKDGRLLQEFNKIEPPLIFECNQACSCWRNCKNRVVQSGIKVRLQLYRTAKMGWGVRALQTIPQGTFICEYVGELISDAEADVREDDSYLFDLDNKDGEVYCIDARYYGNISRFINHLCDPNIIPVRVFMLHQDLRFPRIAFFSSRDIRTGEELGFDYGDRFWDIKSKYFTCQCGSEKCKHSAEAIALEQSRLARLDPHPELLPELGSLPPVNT

Compound: c1cn2cc(-c3ccc4cn[nH]c4c3)nc(Nc3ccc(N4CCOCC4)cc3)c2n1 [entospletinib]
Assay: log2 fold change, soluble protein after heating vs DMSO (PISA); higher = thermal stabilisation; K562 cells, 10 uM, 30 min; active = over 0.2 and 3.5 SD of the protein, either way, in both replicates (recomputed)
Method in brief: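 K562 cells at 2×10^6 cells/mL were exposed to 10 μM compound for 30 min, then aliquots were heated for 3 min across 48°C-58°C, pooled, and extracted in PBS containing 0.5% NP-40 at 4°C. The supernatant after 21,000xg for 90 min was taken as soluble protein and measured by TMTpro 16plex LC-MS/MS with channel sums equalised. Thermal stability is reported relative to control samples, with values from duplicates. Fold changes are given on a log2 scale.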

log2 fold change, inactive:
EEF1AKMT2 (UniProt Q5JPI9) 0.037
EEFSEC (UniProt P57772) 0.062
EIF5A isoform 2 (UniProt P63241) -0.043
EMC1 (UniProt Q8N766) -0.017
ENO2 (UniProt P09104) 0.021
ELP4 isoform 3 (UniProt Q96EB1) 0.006
ELP1 (UniProt O95163) -0.011
ELOA (UniProt Q14241) -0.016
ELOVL6 (UniProt Q9H5J4) -0.002
ELAVL1 isoform 2 (UniProt Q15717) 0.121
EMC6 (UniProt Q9BV81) 0.099
EEF1A2 (UniProt Q05639) -0.025
EHMT2 (UniProt Q96KQ7) 0.061

Quoted from the listing for reference:
log2 fold change, inactive:
ELP4 isoform 3 (UniProt Q96EB1) 0.006
ELP1 (UniProt O95163) -0.011
